Assay results from PMC8649873.
Results are given in words; binding and its absence hold for the method and conditions named. Binding seen in cells or lysates may run through a third protein. Some entries that bind do so weakly or less than the wild type. For part of these data: Sequences can lack the tags named with a protein.

By UniProt entry, the sequences of proteins in these tests, tags left out.
UniProt O75396: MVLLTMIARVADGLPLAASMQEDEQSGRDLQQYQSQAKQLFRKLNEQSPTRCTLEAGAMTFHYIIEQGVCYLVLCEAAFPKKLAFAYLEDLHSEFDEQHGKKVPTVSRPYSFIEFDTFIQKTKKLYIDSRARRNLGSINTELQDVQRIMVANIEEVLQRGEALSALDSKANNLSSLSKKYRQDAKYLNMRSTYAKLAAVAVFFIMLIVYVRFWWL

T1: HA-tagged BET1 Asp68His (human) (UniProt O15155)
T1 sequence: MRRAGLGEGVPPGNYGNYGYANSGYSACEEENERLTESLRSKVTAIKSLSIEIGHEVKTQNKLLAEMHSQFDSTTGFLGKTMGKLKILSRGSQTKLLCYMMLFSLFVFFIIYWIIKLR

T2: HA-tagged BET1 Ile51Ser (human) (UniProt O15155)
T2 sequence: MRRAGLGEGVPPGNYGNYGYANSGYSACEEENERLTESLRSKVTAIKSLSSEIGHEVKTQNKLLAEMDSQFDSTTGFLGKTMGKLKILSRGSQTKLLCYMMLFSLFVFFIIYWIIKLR

T3: HA-tagged wild-type BET1 (human) (UniProt O15155)
T3 sequence: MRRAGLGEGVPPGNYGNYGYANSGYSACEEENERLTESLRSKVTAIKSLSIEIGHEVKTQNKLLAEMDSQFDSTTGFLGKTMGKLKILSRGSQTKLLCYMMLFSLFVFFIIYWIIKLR

T4: BET1 (endogenous) (human (endogenous in HEK293T)) (UniProt O15155)
T4 sequence: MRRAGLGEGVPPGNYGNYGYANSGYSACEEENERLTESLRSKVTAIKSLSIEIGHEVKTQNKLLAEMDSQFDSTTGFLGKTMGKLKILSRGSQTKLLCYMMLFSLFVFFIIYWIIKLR


Key:
[1] = target: T1, HA-tagged BET1 Asp68His (human); experiment: co-IP; HA-tagged BET1 constructs (GFP as control) expressed in HEK293 cells; lysis in EBC buffer (50 mM Tris-HCl, 120 mM NaCl, 0.5% NP-40, 5 mM EDTA); anti-HA sepharose beads 2 h at 4°C; immunoblot of endogenous partners
[2] = target: T2, HA-tagged BET1 Ile51Ser (human); experiment: as above
[3] = target: T3, HA-tagged wild-type BET1 (human); experiment: as above
[4] = target: T4, BET1 (endogenous) (human (endogenous in HEK293T)); experiment: co-IP; endogenous: HEK293T (legend; HEK293 in the methods) lysate in EBC buffer with anti-BET1 antibody overnight at 4°C, magnetic protein A/G beads; controls lysis buffer without cells and lysate without antibody; immunoblot

Molecule	binding [1]	binding [2]	binding [3]	binding [4]
ERGIC-53 (protein, UniProt P49257 31-510) DGVGGDPAVALPHRRFEYKYSFKGPHLVQSDGTVPFWAHAGNAIPSSDQIRVAPSLKSQRGSVWTKTKAAFENWEVEVTFRVTGRGRIGADGLAIWYAENQGLEGPVFGSADLWNGVGIFFDSFDNDGKKNNPAIVIIGNNGQIHYDHQNDGASQALASCQRDFRNKPYPVRAKITYYQNTLTVMINNGFTPDKNDYEFCAKVENMIIPAQGHFGISAATGGLADDHDVLSFLTFQLTEPGKEPPTPDKEISEKEKEKYQEEFEHFQQELDKKKEEFQKGHPDLQGQPAEEIFESVGDRELRQVFEGQNRIHLEIKQLNRQLDMILDEQRRYVSSLTEEISKRGAGMPGQHGQITQQELDTVVKTQHEILRQVNEMKNSMSETVRLVSGMQHPGSAGGVYETTQHFIDIKEHLHIVKRDIDNLVQRNMPSNEKPKCPELPPFPSCLSTVHFIIFVVVQTVLFIGYIMYRSQQEAAAKKFF	binds	–	binds	binds
GOSR2 (protein, UniProt O14653 1-212) MDPLFQQTHKQVHEIQSCMGRLETADKQSVHIVENEIQASIDQIFSRLERLEILSSKEPPNKRQNARLRVDQLKYDVQHLQTALRNFQHRRHAREQQERQREELLSRTFTTNDSDTTIPMDESLQFNSSLQKVHNGMDDLILDGHNILDGLRTQRLTLKGTQKKILDIANMLGLSNTVMRLIEKRAFQDKYFMIGGMLLTCVVMFLVVQYLT	binds	binds	binds	–

Next, values leading:

binding [1]	binding [2]	binding [3]	binding [4]	Molecule
binds	binds	binds	–	SEC22b (from UniProt O75396 1-215)
binds	binds	binds	–	Syntaxin-5 (protein, UniProt Q13190 1-355) MIPRKRYGSKNTDQGVYLGLSKTQVLSPATAGSSSSDIAPLPPPVTLVPPPPDTMSCRDRTQEFLSACKSLQTRQNGIQTNKPALRAVRQRSEFTLMAKRIGKDLSNTFAKLEKLTILAKRKSLFDDKAVEIEELTYIIKQDINSLNKQIAQLQDFVRAKGSQSGRHLQTHSNTIVVSLQSKLASMSNDFKSVLEVRTENLKQQRSRREQFSRAPVSALPLAPNHLGGGAVVLGAESHASKDVAIDMMDSRTSQQLQLIDEQDSYIQSRADTMQNIESTIVELGSIFQQLAHMVKEQEETIQRIDENVLGAQLDVEAAHSEILKYFQSVTSNRWLMVKIFLILIVFFIIFVVFLA
